Measured data: PubChem BioAssay AID1259405 (NCATS, 2018)
Shown is one part, drawn at random, of about 50,000 deposited reagents. About 4,000 of all reagents (8%) were called active. 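Mouse siRNA library applied to hamster cells; one well for each siRNA.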 The numbers tell different reagents against one gene apart.

Screen: 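Silenced genes that increase secreted GFP made by CHO cells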 (primary screen)
System: Chinese hamster CHO-K1 ovary cells with stable secreted eGFP expression
Reagents: single siRNA against mouse genes, 0.8 pmol siRNA per well (2 µl of 400 nM stock)
Duration: 3 days
Measurement: 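Percent of the per-plate non-targeting control median for intracellular GFP per well by laser scanning cytometry and for cell viability by ATP luminescence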
Direction: GFP, % of control: higher = more GFP per well, higher productivity; viability (ATP), % of control: higher = more viable cells (more ATP)
Hit rule: 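Called active when intracellular GFP, relative to negative control, is at or above 120%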

target | siRNA no. | GFP, % of control | viability (ATP), % of control | activity call
Bin3 (bridging integrator 3) | 1 | 79.1 | 104 | inactive
Bin3 (bridging integrator 3) | 2 | 90.1 | 67.2 | inactive
Celf3 (CUGBP, Elav-like family member 3) | 1 | 122 | 111 | active
Celf3 (CUGBP, Elav-like family member 3) | 2 | 91.6 | 99.2 | inactive
Ralb (Ras like proto-oncogene B) | 1 | 46 | 61.8 | inactive
Ralb (Ras like proto-oncogene B) | 2 | 130 | 118 | active
Ralb (Ras like proto-oncogene B) | 3 | 74.3 | 62.9 | inactive
Reck (reversion-inducing-cysteine-rich protein with kazal motifs) | 1 | 71 | 62.9 | inactive
Reck (reversion-inducing-cysteine-rich protein with kazal motifs) | 2 | 81.5 | 84.1 | inactive
Reck (reversion-inducing-cysteine-rich protein with kazal motifs) | 3 | 61.2 | 61.8 | inactive
Csdc2 (cold shock domain containing C2, RNA binding) | 1 | 74.4 | 87.3 | inactive
Csdc2 (cold shock domain containing C2, RNA binding) | 2 | 69.7 | 73.2 | inactive
Csdc2 (cold shock domain containing C2, RNA binding) | 3 | 61 | 94.4 | inactive
Copg2 (coatomer protein complex, subunit gamma 2) | 1 | 82.3 | 81.9 | inactive
Copg2 (coatomer protein complex, subunit gamma 2) | 2 | 90.1 | 82 | inactive
Copg2 (coatomer protein complex, subunit gamma 2) | 3 | 55.4 | 72.8 | inactive
Mettl4 (methyltransferase 4, N6-adenosine) | 1 | 67.3 | 88.9 | inactive
Mettl4 (methyltransferase 4, N6-adenosine) | 2 | 105 | 65.1 | inactive
Mettl4 (methyltransferase 4, N6-adenosine) | 3 | 86.8 | 67.8 | inactive

Next part; the last 3 above are carried over.
target | siRNA no. | GFP, % of control | viability (ATP), % of control | activity call
Mettl4 (methyltransferase 4, N6-adenosine) | 1 | 67.3 | 88.9 | inactive
Mettl4 (methyltransferase 4, N6-adenosine) | 2 | 105 | 65.1 | inactive
Mettl4 (methyltransferase 4, N6-adenosine) | 3 | 86.8 | 67.8 | inactive
Armcx6 (armadillo repeat containing, X-linked 6) | 1 | 83.1 | 67 | inactive
Armcx6 (armadillo repeat containing, X-linked 6) | 2 | 73.9 | 89.7 | inactive
Armcx6 (armadillo repeat containing, X-linked 6) | 3 | 99.7 | 66.6 | inactive
9530068E07Rik (RIKEN cDNA 9530068E07 gene) | 1 | 69.8 | 55.6 | inactive
9530068E07Rik (RIKEN cDNA 9530068E07 gene) | 2 | 69.8 | 94.5 | inactive
9530068E07Rik (RIKEN cDNA 9530068E07 gene) | 3 | 84.2 | 88.2 | inactive
Pacc1 (proton activated chloride channel 1) | 1 | 70 | 85.8 | inactive
Pacc1 (proton activated chloride channel 1) | 2 | 61.2 | 78.7 | inactive
Pacc1 (proton activated chloride channel 1) | 3 | 87 | 101 | inactive
Sorbs3 (sorbin and SH3 domain containing 3) | 1 | 70.5 | 60.5 | inactive
Sorbs3 (sorbin and SH3 domain containing 3) | 2 | 52.5 | 69 | inactive
Sorbs3 (sorbin and SH3 domain containing 3) | 3 | 47.8 | 67.5 | inactive
Spinkl (serine protease inhibitor, Kazal type-like) | 1 | 46.3 | 58.6 | inactive
Spinkl (serine protease inhibitor, Kazal type-like) | 2 | 150 | 100 | active
Spinkl (serine protease inhibitor, Kazal type-like) | 3 | 74.5 | 83.4 | inactive
